Measurements reported in PubChem BioAssay AID602196 (INSERM, 2012).

Aim: 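Genes whose knock-down alters cisplatin killing of lung cancer cells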
System: human A549 lung cancer cells
Reagent: siRNA pair against human genes
Duration: 48 h transfection before cisplatin; time from cisplatin to read-out not stated
Challenge: cisplatin at a dose killing half of control-siRNA cells; exact dose and duration not given
Detection: 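Cisplatin cell death as a shift from the 50% death seen with control siRNA; siRNAs toxic or growth-blocking alone scored 0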
Scale: two-siRNA summed score (-2 to +2): higher = both siRNAs protect from cisplatin killing; -2 means both sensitise
Rule for the call: 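Each siRNA scores 0 if harmful alone by LDH or WST-1, otherwise +1 if it reduces and -1 if it increases cisplatin killing; a gene is active when both siRNAs agree (sum +2 or -2)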
Meaning of the calls: active = both siRNAs shift cisplatin killing the same way; inactive = no consistent shift, or siRNA harmful alone
The whole screen tested about 23,000 reagents; shown is a random part of them. Of all reagents, 455 (2%) got an active call. 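Active includes both protection and sensitisation; some change values fall well beyond the stated -50 to +50 range.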 Not all columns of the deposit are shown. Not given: the amount of reagent.

RBM15-AS1
- two-siRNA summed score (-2 to +2): 1
- activity call: inactive

CDCA7L
- two-siRNA summed score (-2 to +2): 1
- activity call: inactive

RAB5C
- two-siRNA summed score (-2 to +2): 1
- activity call: inactive

GNB2
- two-siRNA summed score (-2 to +2): 0
- activity call: inactive

MED1
- two-siRNA summed score (-2 to +2): 0
- activity call: inactive

FDX1
- two-siRNA summed score (-2 to +2): 1
- activity call: inactive

ZNF121
- two-siRNA summed score (-2 to +2): 0
- activity call: inactive

FAM53C
- two-siRNA summed score (-2 to +2): 0
- activity call: inactive

TIMM10B
- two-siRNA summed score (-2 to +2): 0
- activity call: inactive

PRR23E
- two-siRNA summed score (-2 to +2): 2
- activity call: active

GSKIP
- two-siRNA summed score (-2 to +2): 0
- activity call: inactive

SERPINF2
- two-siRNA summed score (-2 to +2): -1
- activity call: inactive

GEMIN4
- two-siRNA summed score (-2 to +2): 0
- activity call: inactive

R3HDM1
- two-siRNA summed score (-2 to +2): 0
- activity call: inactive

Hits, among the entries above:
PRR23E
- two-siRNA summed score (-2 to +2): 2
- activity call: active

More records follow:
SLC49A3
- two-siRNA summed score (-2 to +2): 1
- activity call: inactive

OR4C3
- two-siRNA summed score (-2 to +2): 0
- activity call: inactive

SPMIP11
- two-siRNA summed score (-2 to +2): 0
- activity call: inactive

LOC400411
- two-siRNA summed score (-2 to +2): 0
- activity call: inactive

NXF3
- two-siRNA summed score (-2 to +2): 0
- activity call: inactive

ELMOD2
- two-siRNA summed score (-2 to +2): 0
- activity call: inactive

LOC440160
- two-siRNA summed score (-2 to +2): 0
- activity call: inactive
